The test system of the assay is Staphyloccoccus aureus methicillin-resistant (S. aureus Meth-R). Put plainly: Minimum inhibitory concentration, agar dilution, methicillin-resistant Staphylococcus aureus. Type of assay: cell-based. The note with it: 24 h, one isolate per line, 10^4 cfu/spot, trypticase soy agar, 24 hours at 35° C. As to the method:
The free acid of the compound of formula I was prepared as aqueous solutions at a concentration of 1.28 mg/ml. Comparative agents vancomycin and streptomycin were prepared at 1.28 mg/ml in Sorensens' buffer, pH 7.
Each of the drugs was serially diluted twofold in 20×100 mm sterile petri dishes with the aid of a Pipetman. To each plate containing 1 ml of the antibiotic dilution was added 9 ml molten trypticase soy agar (TSA) (BBL) to yield final drug concentrations ranging from 128-0.031 mcg/ml. Plates were swirled to mix, allowed to solidify at room temperature and were stored overnight at 5° C.
Cultures were grown in trypticase soy broth (TSB) for 16 hours at 35° C. They were diluted 1-100 in TSB to obtain an inoculum of 10^4 cfu/spot when plated using a Denley multipoint inoculator calibrated to deliver 0.0015 ml. Inoculated plates were incubated for 24 hours at 35° C.
The minimum inhibitory concentration (MIC) was defined as the lowest concentration that allowed no growth or a barely visible haze.

Each structure is given as a SMILES string. Values after ≈ are worked out from the molar mass of the structure shown.

Broadly, the MIC is the lowest concentration that inhibits growth of the organism. Higher therefore signals a need for much substance.

`CN[C@H](CC(C)C)C(=O)N[C@H]1C(=O)N[C@@H](CC(N)=O)C(=O)N[C@H]2C(=O)N[C@H]3C(=O)N[C@H](C(=O)N[C@H](C(=O)O)c4cc(O)cc(O)c4-c4cc3ccc4O)[C@H](O)c3ccc(c(Cl)c3)Oc3cc2cc(c3O[C@@H]2O[C@H](CO)[C@@H](O)[C@H](O)[C@H]2O[C@H]2C[C@](C)(N)[C@H](O)[C@H](C)O2)Oc2ccc(cc2Cl)[C@H]1O` [Vancomycin]: the MIC is 2 µg/mL (≈ 1.38 µM).

Source of the values: patent US4806566A, “Anti-gram positive bacteria tri-yne carbonates” (Merck & Co., Inc., priority 1987, dated 1989).
